From publication PMC5727433
Positions count from the first letter of the chain named. No constants are given. Whether binding was seen depends on the method and setting. Binding seen in cells or lysates may run through a third protein. Some entries that bind do so weakly or less than the wild type.

By UniProt entry, the sequences of proteins in these tests, tags left out. Where a name states a change or a piece, a line headed by the entry shows the natural chain unless it says otherwise.
UniProt O15105: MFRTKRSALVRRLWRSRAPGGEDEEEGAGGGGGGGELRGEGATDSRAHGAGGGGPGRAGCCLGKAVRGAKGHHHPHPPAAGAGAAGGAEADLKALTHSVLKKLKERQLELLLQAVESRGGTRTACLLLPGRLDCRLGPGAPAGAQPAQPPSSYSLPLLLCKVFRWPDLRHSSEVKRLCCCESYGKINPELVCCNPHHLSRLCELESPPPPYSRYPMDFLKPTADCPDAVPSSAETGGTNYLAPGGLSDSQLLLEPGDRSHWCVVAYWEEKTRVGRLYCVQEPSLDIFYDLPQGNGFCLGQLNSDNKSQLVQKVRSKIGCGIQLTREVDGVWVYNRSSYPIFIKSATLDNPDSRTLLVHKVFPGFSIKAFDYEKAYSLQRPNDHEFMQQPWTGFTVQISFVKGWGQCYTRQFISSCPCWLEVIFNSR
UniProt Q9HAU4: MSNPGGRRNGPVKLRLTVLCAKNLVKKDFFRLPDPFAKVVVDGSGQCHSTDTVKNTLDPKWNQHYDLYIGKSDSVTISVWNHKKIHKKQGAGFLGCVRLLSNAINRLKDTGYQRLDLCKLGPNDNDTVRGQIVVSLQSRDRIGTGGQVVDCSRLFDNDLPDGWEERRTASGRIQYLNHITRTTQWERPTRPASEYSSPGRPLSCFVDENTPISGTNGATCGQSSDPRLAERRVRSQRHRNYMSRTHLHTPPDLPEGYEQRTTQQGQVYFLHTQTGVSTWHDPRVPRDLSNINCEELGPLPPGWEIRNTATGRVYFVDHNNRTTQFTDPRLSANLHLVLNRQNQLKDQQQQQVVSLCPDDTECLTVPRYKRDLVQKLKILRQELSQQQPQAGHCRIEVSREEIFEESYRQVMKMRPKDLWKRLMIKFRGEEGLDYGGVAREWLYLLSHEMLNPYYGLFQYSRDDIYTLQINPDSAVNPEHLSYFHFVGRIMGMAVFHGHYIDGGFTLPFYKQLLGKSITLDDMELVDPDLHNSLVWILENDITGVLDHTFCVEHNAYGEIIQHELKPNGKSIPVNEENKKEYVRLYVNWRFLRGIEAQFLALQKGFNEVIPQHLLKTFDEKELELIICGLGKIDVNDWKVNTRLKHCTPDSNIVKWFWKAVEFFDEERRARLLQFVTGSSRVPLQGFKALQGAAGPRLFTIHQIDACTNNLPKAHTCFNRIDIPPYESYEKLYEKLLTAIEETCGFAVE

Key:
[1] = molecular target: T1, OTUD1-wt (experiment of Supplementary Fig. 4b) (UniProt Q5VV17); assay: co-IP; Supplementary Fig. 4b; SMAD7 associated with OTUD1-wt or OTUD1-CA examined for ubiquitination; details not shown
T1 sequence: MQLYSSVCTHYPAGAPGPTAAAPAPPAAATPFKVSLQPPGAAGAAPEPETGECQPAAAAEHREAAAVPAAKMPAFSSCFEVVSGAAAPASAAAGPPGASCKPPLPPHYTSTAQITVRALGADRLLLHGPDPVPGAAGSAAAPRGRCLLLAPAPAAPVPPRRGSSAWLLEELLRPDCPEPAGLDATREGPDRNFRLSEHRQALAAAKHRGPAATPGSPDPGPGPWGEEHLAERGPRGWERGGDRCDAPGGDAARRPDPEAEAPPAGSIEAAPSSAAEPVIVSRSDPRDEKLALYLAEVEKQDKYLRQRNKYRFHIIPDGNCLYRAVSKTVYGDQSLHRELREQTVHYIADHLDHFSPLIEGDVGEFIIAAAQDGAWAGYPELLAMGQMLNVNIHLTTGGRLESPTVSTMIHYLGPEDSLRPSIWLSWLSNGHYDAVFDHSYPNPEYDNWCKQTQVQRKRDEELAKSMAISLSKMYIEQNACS

[2] = molecular target: T2, OTUD1-CA mutant (experiment of Supplementary Fig. 4b) (UniProt Q5VV17); assay: as above
T2 sequence: T1 sequence with C320A

Flag-SMAD7 K220R = Flag-SMAD7 K220R (UniProt O15105); assay: co-IP; anti-Flag immunoprecipitates from HEK293T cells transfected with Flag-SMAD7-wt or K220R, with or without depletion of OTUD1; immunoblot for SMURF2
Flag-SMAD7 = Flag-SMAD7 (UniProt O15105); assay: as above

SMAD7 (experiment of Supplementary Fig. 4b) (from UniProt O15105 1-426)
binding [1]: binds
binding [2]: binds

SMURF2 (from UniProt Q9HAU4 1-748) (enzyme)
binding (Flag-SMAD7 K220R): binds
binding (Flag-SMAD7): binds
